At least one peptide structure holds a part that was inferred or is arguable (an end, a ring closure or a residue). *1 amine or outer side, *2 acyl side, *3 side chain or, on linkers, in order; H or OH if unused. Where a SMILES comes first, the peptide text is derived from it. Bridges are numbered along the chain shown (N, C = ends). Roman numbers before positions name the chains, in order. [ ]: non-standard residue; d: D form. CO(CH2CH2O)9CH2CH2CO = O=C(CCOCCOCCOCCOCCOCCOCCOCCOCCOCCC(=O)[*:2])[*:1]; 3Pal = N[C@@H](Cc1cccnc1)C(=O)O
Assays:
[1] = target: T1, TrkB (CellSensor TrkB-NFAT-bla CHO-K1 Cell) (Homo sapiens, UniProt Q16620); assay: pERK1/2 AlphaLISA assay (phosphorylation of ERK) for TrkB agonist activity; format: cell-based; conditions: class = peptide concentration giving 50% or more activity; BDNF maximum signal = 100%, no stimulation = 0%; 15 minutes of stimulation
T1 construct: host or cells: CHO-K1 (CellSensor TrkB-NFAT-bla CHO-K1)
Method: To evaluate the TrkB activation potency of the TrkB agonist peptide of the present invention, the phosphorylation of ERK was examined. CellSensor (registered trademark) TrkB-NFAT-bla CHO-K1 Cell (Invitrogen) was cultured in DMEM, high glucose, GlutaMAX (registered trademark) Supplement, and pyruvate (Thermo), comprising 10% FBS (Thermo) and 1× Non-essential amino acids (Thermo), 25 mM HEPES (Thermo), 50 ug/mL Gentamicin, 5 ug/mL Blasticidin (Thermo), and 200 ug/mL Zeocin (Thermo). After the cells were detached using Accutase (Innovative Cell Technologies), they were seeded into a 96-well plate for adherent cultures at 12,500 cells per well and cultured overnight. […] The signals were detected using a SpectraMax Paradigm Multi-Mode Microplate Reader (Molecular Devices). The obtained signals were analyzed with GraphPad Prism, and the activity (%) was calculated with the maximum value of the signals induced by BDNF as 100% and a signal with no stimulation as 0%. The peptide with 50% or more activity when 1 nM of the peptide was added was evaluated as A, and the peptide with 50% or more activity when 10 nM of the peptide was added was evaluated as B.
The BDNF was evaluated at 8 points (0.0006 nM to 10 nM) from 10 nM using 4-fold dilutions. […]

Protein sequences, listed by entry. Tags and fused reporters are not part of them. Residues count along the entry.
UniProt Q16620, 32-822: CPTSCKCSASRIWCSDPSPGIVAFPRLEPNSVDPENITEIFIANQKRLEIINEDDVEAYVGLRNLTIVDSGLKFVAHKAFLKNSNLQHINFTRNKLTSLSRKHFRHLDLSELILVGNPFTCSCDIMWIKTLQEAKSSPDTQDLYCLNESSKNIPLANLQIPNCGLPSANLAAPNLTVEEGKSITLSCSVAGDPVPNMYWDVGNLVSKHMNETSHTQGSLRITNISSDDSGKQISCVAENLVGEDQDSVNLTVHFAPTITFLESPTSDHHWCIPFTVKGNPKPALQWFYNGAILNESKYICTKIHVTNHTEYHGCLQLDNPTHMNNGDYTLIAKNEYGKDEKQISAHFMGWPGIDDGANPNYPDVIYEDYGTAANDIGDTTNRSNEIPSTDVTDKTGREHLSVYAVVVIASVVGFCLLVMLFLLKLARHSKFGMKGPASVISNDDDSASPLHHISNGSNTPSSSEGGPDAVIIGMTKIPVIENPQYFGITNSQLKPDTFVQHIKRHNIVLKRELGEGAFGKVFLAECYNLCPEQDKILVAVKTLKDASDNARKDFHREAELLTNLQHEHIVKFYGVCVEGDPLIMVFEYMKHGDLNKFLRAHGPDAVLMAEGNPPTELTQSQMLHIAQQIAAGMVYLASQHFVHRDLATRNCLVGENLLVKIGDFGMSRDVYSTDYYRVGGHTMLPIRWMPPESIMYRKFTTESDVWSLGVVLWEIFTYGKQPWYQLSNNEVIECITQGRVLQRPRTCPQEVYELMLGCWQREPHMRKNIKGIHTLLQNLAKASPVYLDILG

[2] = target: T1, TrkB (CellSensor TrkB-NFAT-bla CHO-K1 Cell); assay: NFAT transcriptional reporter assay for TrkB agonist activity; format: cell-based; conditions: class = peptide concentration giving 50% or more activity; BDNF maximum signal = 100%, no stimulation = 0%; 5 hours culture
Method: To evaluate the TrkB activation potency of the TrkB agonist peptide of the present invention, transcriptional activity was examined using transcriptional reporters. The CellSensor (registered trademark) TrkB-NFAT-bla CHO-K1 Cell (Invitrogen) used in the AlphaLISA assay was cultured in the medium above. After the cells were detached using Accutase (Innovative Cell Technologies), the cells were suspended in an assay medium, wherein Blasticidin and Zeocin were removed, then seeded into a 96-well plate for adherent cultures at 12,500 cells per well and cultured overnight. Then, BDNF or a peptide was added thereto, and the cells were further cultured in a CO2 incubator for 5 hours. […] For signal detection, a EnVision 2104 Multilabel Plate Reader (PerkinElmer) was used, and the ratio of fluorescence emission value (460 nm/535 nm) was calculated. The obtained numerical values were analyzed with GraphPad Prism, and the activity (%) was calculated with the maximum value of the signals induced by BDNF as 100% and a signal with no stimulation as 0%. The peptide with 50% or more activity when 1 nM of the peptide was added was evaluated as A, the peptide with 50% or more activity when 10 nM of the peptide was added was evaluated as B, and the peptide with 50% or more activity when 100 nM of the peptide was added was evaluated as C. Those that were not evaluated were listed as not tested. […]

CC(C)[C@@H]1NC(=O)[C@H](Cc2cccnc2)NC(=O)[C@H](CCC(=O)O)NC(=O)[C@H](CO)NC(=O)[C@H](Cc2ccc(O)cc2)NC(=O)[C@H]([C@@H](C)O)NC(=O)[C@@H]2CCCN2C(=O)[C@H](Cc2c[nH]c3ccccc23)NC(=O)[C@H](Cc2cccnc2)NC(=O)[C@H](Cc2ccc(O)cc2)NC(=O)[C@@H]2CCCN2C(=O)[C@H](CO)NC(=O)[C@H](Cc2ccccc2)NC(=O)CSC[C@@H](C(=O)NCC(=O)N[C@@H](CCCCNC(=O)CCOCCOCCOCCOCCOCCOCCOCCOCCOCCC(=O)NCCCC[C@H](NC(=O)CNC(=O)[C@@H]2CSCC(=O)N[C@@H](Cc3ccccc3)C(=O)N[C@@H](CO)C(=O)N3CCC[C@H]3C(=O)N[C@@H](Cc3ccc(O)cc3)C(=O)N[C@@H](Cc3cccnc3)C(=O)N[C@@H](Cc3c[nH]c4ccccc34)C(=O)N3CCC[C@H]3C(=O)N[C@@H]([C@@H](C)O)C(=O)N[C@@H](Cc3ccc(O)cc3)C(=O)N[C@@H](CO)C(=O)N[C@@H](CCC(=O)O)C(=O)N[C@@H](Cc3cccnc3)C(=O)N[C@@H](C(C)C)C(=O)N[C@@H](CCC(=O)O)C(=O)N2)C(N)=O)C(N)=O)NC(=O)[C@H](CCC(=O)O)NC1=O [compound 47] (I: {CH2CO}-FSPY[3Pal]WPTYSE[3Pal]VECGK-NH2 / II: {CH2CO}-FSPY[3Pal]WPTYSE[3Pal]VECGK-NH2; linker I:17-II:17 via CO(CH2CH2O)9CH2CH2CO; thioether I:N-I:15, II:N-II:15)
pERK (aLISA) Assay Results [1]: A (The peptide with 50% or more activity when 1 nM of the peptide was added was evaluated as A)
NFAT Assay Results [2]: A (The peptide with 50% or more activity when 1 nM of the peptide was added was evaluated as A)
